These results are taken from PMC7072329 (Biomolecules, 2020).

HELM strings list residues between dots; [ac] is acetyl, [am] amide, other brackets name non-standard units. [ ]: non-standard residue; d: D form. The star is where a group is joined. Kyn = Nc1ccccc1C(=O)C[C@H](N)C(=O)O; Boc = CC(C)(C)OC(=O)*

The data set is described as follows: general procedure: solution-phase peptide synthesis; EDC·HCl, HOBt, DIPEA. Particulars: for isolated yield: overall.
[1] abbreviates: late stage modification step, analytical RP-HPLC recorded at 254 nm, TFA salt.

As to “Boc‐Tyr‐DAla‐Gly‐N(Me)Phe‐aminoethanol‐kynurenic acid”, under “coupling step, from 5, TFA salt”, the step yield worked out at 66%.

As to PEPTIDE1{Y.[dA].G.F.[Kyn].[am]}$$$$V2.0, the “final HPLC purity” value under setting [1] is 96%. Also, the step yield (late stage modification step, from 21, TFA salt) worked out at 52%. Besides, the isolated yield (whole synthesis, TFA salt) is 48%.

For the substance TFA.NH2‐Tyr‐DAla‐Gly‐Phe‐Kyn‐OCH3, the isolated yield (whole synthesis, TFA salt) was determined as 62%.

Take Boc-[dA]GF[Kyn]-OMe: the step yield (coupling step, TFA salt) is 84%.

Take PEPTIDE1{Y.P.F.[Kyn].[am]}$$$$V2.0: the step yield (late stage modification step, from 14, TFA salt) amounted to 83%. In addition, the isolated yield (whole synthesis, TFA salt) is on record as 83%.

For the substance “PEPTIDE1{Y.[dA].G.[NMePhe].[NHEtO-kyna]}$$$$V2.0”, the “final HPLC purity” value reads like this: (whole synthesis, 254 nm, TFA salt, run 1) not below 95%; (whole synthesis, 254 nm, TFA salt, run 2) 97.64%. In addition, under “whole synthesis, TFA salt”, the isolated yield is 71%.

Regarding PEPTIDE1{Y.P.[Kyn].F.[am]}$$$$V2.0, where the note is “late stage modification step, from 10, TFA salt”, the step yield came out at 72%. Moreover, the isolated yield (whole synthesis, TFA salt) is 72%.

Turning to PEPTIDE1{Y.[dA].G.F.[Kyn]}$$$$V2.0, the “final HPLC purity” value under setting [1] stood at 98%. Further, the step yield (late stage modification step, from 20, TFA salt) amounted to 72%. The isolated yield (whole synthesis, TFA salt) came out at 62%.
